## Primary screen of a compound library

The chains behind the UniProt entries cited, without tags or fusion partners. Residues count along the entry.
UniProt Q8IDJ8, 1-583: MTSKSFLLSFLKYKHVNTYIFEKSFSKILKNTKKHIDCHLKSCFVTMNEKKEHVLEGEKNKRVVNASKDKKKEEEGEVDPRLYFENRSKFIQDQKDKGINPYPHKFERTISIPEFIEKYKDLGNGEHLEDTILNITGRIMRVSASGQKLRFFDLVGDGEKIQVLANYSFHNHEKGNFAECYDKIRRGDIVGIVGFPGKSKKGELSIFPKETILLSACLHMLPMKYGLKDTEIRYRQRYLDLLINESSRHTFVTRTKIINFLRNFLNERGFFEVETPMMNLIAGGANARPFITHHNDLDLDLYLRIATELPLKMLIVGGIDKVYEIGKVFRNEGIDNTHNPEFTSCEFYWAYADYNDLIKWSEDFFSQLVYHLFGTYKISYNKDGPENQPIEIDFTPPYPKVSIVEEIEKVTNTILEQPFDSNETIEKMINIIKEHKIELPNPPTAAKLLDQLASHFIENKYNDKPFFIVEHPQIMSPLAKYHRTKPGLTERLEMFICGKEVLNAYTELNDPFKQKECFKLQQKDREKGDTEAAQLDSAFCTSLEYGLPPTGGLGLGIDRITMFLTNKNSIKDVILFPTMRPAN
UniProt P9WFT3, whole entry: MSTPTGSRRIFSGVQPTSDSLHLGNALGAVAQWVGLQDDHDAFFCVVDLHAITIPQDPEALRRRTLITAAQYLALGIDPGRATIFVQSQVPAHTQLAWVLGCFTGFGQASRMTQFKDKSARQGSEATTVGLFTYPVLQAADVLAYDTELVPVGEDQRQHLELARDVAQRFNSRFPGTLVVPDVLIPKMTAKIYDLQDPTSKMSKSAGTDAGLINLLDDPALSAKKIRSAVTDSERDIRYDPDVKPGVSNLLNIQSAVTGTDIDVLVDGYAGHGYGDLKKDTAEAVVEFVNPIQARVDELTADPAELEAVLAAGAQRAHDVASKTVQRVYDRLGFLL

From ChEMBL document CHEMBL3988442, “University of Dundee, Small-Polar-MMV Screening Library” (2021).

PfKRS1: 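Lysine-tRNA ligase, Plasmodium falciparum 3D7 (UniProt Q8IDJ8). Enzyme assay of the cytosolic lysyl-tRNA synthetase in 384-well plates, read by luminescence. Concentration: 30 µM. Direction is inferred from only a few compounds that gave an IC50; most scored high, so higher reads as stronger inhibition. Of about 69,000 compounds tested this way, about 49 (0.071%) reached 50% or more in at least one test.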
MtTrpRS: 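Enzyme assay of tryptophanyl-tRNA synthetase; the read-out is not stated. Target: Tryptophan-tRNA ligase, Mycobacterium tuberculosis (UniProt P9WFT3). Concentration: 10 µM. Higher most likely means stronger inhibition; the record gives no direction and few retests gave an IC50. About 65,000 compounds were tested under these conditions; 0.098% (about 64) showed 50% or more at least once.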

Each number is a percent effect as filed.
How 0% and 100% were set is not recorded. Most values in the screen are low, and negative values occur.
Compounds were drawn at random from those tested, without regard to their results.

* Cc1nccc(N[C@H]2CN(CCS(C)(=O)=O)C[C@@H]2C2CC2)n1 : PfKRS1: 3.369%; MtTrpRS: 1.89%
* CC(C)CN1C(=O)CO[C@@H]2CN(C(=O)N(C)C)C[C@H]21 : PfKRS1: 2.325%; MtTrpRS: 0.4933%
* COC(=O)c1ccc(C(=O)NCc2ccc(Br)cc2)cn1 : PfKRS1: 3.557%; MtTrpRS: 1.143%
* CN(C)C(=O)CN1CCC2(CCN(S(C)(=O)=O)CC2)C1=O : PfKRS1: 3.242%; MtTrpRS: 1.017%
* CC(=O)NCc1ccc(C(=O)N2CCCCC2Cn2cccn2)o1 (stereo unspecified) : PfKRS1: 0.1246%; MtTrpRS: 4.179%
* CC1(C)OC(=O)N(CCCC(=O)c2ccc(F)cc2)C1=O : PfKRS1: 0.122%; MtTrpRS: 3.673%
* NC(=O)c1noc(Cn2ncc3ccccc3c2=O)n1 : PfKRS1: -4.874%; MtTrpRS: 7.972%
* Cc1csc(CNC(=O)NCC(O)c2ccc(F)cc2)n1 (stereo unspecified) : PfKRS1: 2.659%; MtTrpRS: -4.674%
* CCn1cc(S(=O)(=O)Nc2ccc3[nH]c(C4CCC4)nc3c2)cn1 : PfKRS1: -8.075%; MtTrpRS: -0.08211%
* CC(C)OCCC(=O)NCC(O)c1c(F)cccc1F (stereo unspecified) : PfKRS1: 3.692%; MtTrpRS: 3.23%
* CC(C(=O)NCCOc1ccc2c(c1)CCC2)n1cncn1 (stereo unspecified) : PfKRS1: -0.342%; MtTrpRS: 14.21%
* CNS(=O)(=O)CCNc1cc(C)nc2cc(C)nn12 : PfKRS1: -0.8818%; MtTrpRS: 0.3358%
* CC(C)c1csc(C(=O)N2CCCC(Cn3cc(CO)nn3)C2)n1 (stereo unspecified) : PfKRS1: 3.341%; MtTrpRS: 1.802%
* Cc1ccc(-c2n[nH]cc2CNCC2CCN(CC(F)(F)F)C2)o1 (stereo unspecified) : PfKRS1: 3.147%; MtTrpRS: -0.2913%
* CCNC(=O)N(C)Cc1ccc(SC)c(OC)c1 : PfKRS1: 6.033%; MtTrpRS: 3.94%
* CN(C)CCN1C(=O)C2(CCN(CC3CC3)CC2)c2ccccc21 : PfKRS1: 2.093%
* CCC(CC)C(O)CNC(=O)Cc1c[nH]c2ncccc12 (stereo unspecified) : PfKRS1: 2.561%; MtTrpRS: 3.344%
* CCc1cnc(NCCSc2cnn[nH]2)nc1 : PfKRS1: -7.792%; MtTrpRS: 23.78%
* O=C1Nc2ccccc2CNC12CCN(CC1CCNC1)CC2 (stereo unspecified) : PfKRS1: 0.2568%; MtTrpRS: -5.445%
* Cc1ccccc1OC1(C(=O)O)CCN(C(=O)CCc2ccco2)CC1 : PfKRS1: 1.938%; MtTrpRS: -3.295%
* CC(=O)NCCC1CCCCN1S(=O)(=O)c1cccc(F)c1 (stereo unspecified) : PfKRS1: 2.237%; MtTrpRS: 2.297%
* CNC(=O)C1CCN(c2cc(C3CCNCC3)nc(C)n2)C1 (stereo unspecified) : PfKRS1: 4.672%; MtTrpRS: -2.641%
* CCN1CCN(C(=O)c2ccc3c(c2)OCC(=O)N3)[C@H]2CS(=O)(=O)C[C@H]21 : PfKRS1: 0.935%; MtTrpRS: 4.741%
* CC1CCN(C(=O)c2cnc3cc(C(=O)N(C)C)n(C)c3c2)CC1 : PfKRS1: 2.951%
* CCCC(=O)Nc1cnn(CC(=O)Nc2ccc(SC)cc2)c1 : PfKRS1: 6.354%; MtTrpRS: 0%

2 of the entries, repeated:

Cc1ccccc1OC1(C(=O)O)CCN(C(=O)CCc2ccco2)CC1 read PfKRS1: 1.938%; MtTrpRS: -3.295%.
Cc1ccc(-c2n[nH]cc2CNCC2CCN(CC(F)(F)F)C2)o1 (stereo unspecified) read PfKRS1: 3.147%; MtTrpRS: -0.2913%.